# Results published in patent US11480502B2, “Method and composition for optical clearing of tissues” (The United States of America, as represented by the …, priority 2016, dated 2022).
# Where two headings read alike, the source gives them in different places.
# Test system: tissues
# Experiment: Tissue transparency with tested clearing reagents combined with a density gradient medium (Table 1)
# Design: key: more “+”s being desirable; ++: more “+”s being desirable; +++: more “+”s being desirable; ++++: more “+”s being desirable; level 5 (“+++++”); ++++++: more “+”s being desirable
# [1] = clearing reagent combined with a density gradient medium
SMILES,Tissue Transparency [1],Tissue Transparency
"NCC(O)CO (racemic) [(±)-3-Amino-1,2-propanediol]",+++++,
"CN(C)C(N)=O [1,1-Dimethylurea]",++,
"CCNC(=O)NCC [1,3-Diethylurea]",++,
CC(O)CN(C)C (stereo not drawn) [1-Dimethylamino-2-propanol],++++,
"CN(C)C(=O)CN [2-Amino-N,N-dimethylacetamide]",+,
CNC(=O)CN [2-Amino-N-methylacetamide],+,
O=C(CCl)NCO [2-Chloro-N-(hydroxymethyl)acetamide],+++++,
CN(C)C(C)(C)CO [2-Dimethylamino-2-methylpropanol],+++++,
CNC(=O)CO [2-Hydroxy-N-methylacetamide],+++,
CN(C)CCCO [3-Dimethylamino-1-propanol],+++++,
"CNCC(O)CO (stereo not drawn) [3-Methylamino-1,2-propanediol]",+++++,
CNCCCO [3-Methylamino-1-propanol],++++,
CC(N)=O [Acetamide],+,
CC(O)CNCC(C)O (stereo not drawn) [Bis(2-hydroxypropyl)amine],+++++,
NC=O [Formamide],++++++,
NC(=O)CO [Glycolamide],++,
"CCN(CC)C(=O)CO [N,N-Diethyl-2-hydroxyacetamide]",+++,
"CNC(=O)NC [N,N′-Dimethylurea]",++++,
COc1ccccc1NC(C)=O [N-(2-Methoxyphenyl)acetamide],+,
CC(=O)NCO [N-(Hydroxymethyl)acetamide],+++,
CC(=O)N[Si](C)(C)C [N-(Trimethylsilyl)acetamide],,+
CCNC(C)=O [N-Ethylacetamide],++++,
CON(C)C(C)=O [N-Methoxy-N-methylacetamide],+++,
CNC(C)=O [N-Methylacetamide],+++++,
CNC=O [N-Methylformamide],++++++,
NC(CO)CO [Serinol],++++,
NC(N)=O [Urea],+++,
